Test results taken from PubChem BioAssay AID1259415 (National Center for Advancing Translational Sciences (NCATS), 2018).
Among all 410,000 compounds or so, about 18,000 (4.4%) were called active. The shares of active, inactive and inconclusive entries below differ from those in the screen. Rule as the data show it: active = activity change below about -60%; inconclusive = no clear call, values can overlap the other calls; inactive = above about -39%.

Assay: qHTS Assay for inhibitors of the human cytomegalovirus (HCMV)
Details: HFF cells, HCMV-luciferase reporter, 72 h; at 57.5 µM; stronger effect = lower value
Procedure, shortened: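 Compounds were evaluated in HFFs infected with an HCMV luciferase reporter virus (MOI 1 PFU/cell). Luciferase in lysates collected 72 h post infection served as the replication measure.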
% is scaled to controls: 0 for no effect and ±100 for the full control effect.

Row | Structure (SMILES) | activity change, negative = inhibition
1 | Cc1nn(C(C)C(=O)NC2CCCCC2)c(=O)c2nn(-c3ccccc3)c(C)c12 (stereo not given) | inconclusive: -43.2%
2 | COc1cccc(/C=C/C(=O)OCC(=O)Nc2ccccc2Sc2ccccc2)c1 | active: -64.8%
3 | O=C(CNC(=O)c1ccc2c(c1)OCO2)Nc1cccc(Br)c1 | inactive: 32.1%
4 | Cc1nn(CCS(=O)(=O)c2ccc(Cl)cc2)c(C)c1Br | inconclusive: -44.8%
5 | CCN(CC)CCNC(=O)c1cn(CC)c2ccc(S(=O)(=O)N(C)C3CCCCC3)cc2c1=O | inconclusive: -41.9%
6 | O=C(Nc1ncccc1O)c1ccc(S(=O)(=O)NCc2ccco2)cc1 | inconclusive: -49.5%
7 | COc1ccc(CC(=O)OCC(=O)NCC2CCCO2)cc1OC (stereo not given) | inconclusive: -47.2%
8 | O=C(CN1CCN(c2ccc(F)cc2)CC1)NCc1ccc(Cl)cc1 | inconclusive: -45.4%
9 | O=C(NCC(c1cccnc1)N1CCN(Cc2ccccc2)CC1)C(=O)Nc1cccc(Cl)c1 (stereo not given) | inconclusive: -40.4%
10 | COc1ccc(NC(=O)CN(C)C2CCCCC2)c([N+](=O)[O-])c1 | inconclusive: -44.3%
11 | COc1ccccc1CCn1cnc(-c2ccc(Br)cc2)c1C(C)C | inconclusive: -44.5%
12 | CCOC(=O)c1nn(-c2cccc(OC)c2)c(-c2ccccc2)c1C(=O)c1ccccc1 | inconclusive: -51.6%
13 | CCN(CC)S(=O)(=O)c1cccc(NC(=O)C2SC(=Nc3ccc(C)cc3C)C(C(=O)NCC3CCCO3)=C2N)c1 (stereo not given) | inactive: 23.1%
14 | COc1cccc(NC(=O)c2cc3c(-c4ccc(Cl)cc4)nn(C)c3s2)c1 | inconclusive: -45.8%
15 | COc1cc2c(cc1OC)C1(Nc3c-2c(C)nn3-c2ccccc2)C(=O)Nc2ccccc21 (stereo not given) | inactive: -21.1%
16 | Cn1c(O)c(C=NC2CCCCC2)c(=O)[nH]c1=S | inconclusive: -42%
17 | Cc1cccc(N2CCN(c3ncnc4c3nc3n4CCCCC3)CC2C)c1 (stereo not given) | active: -98.4%
18 | O=C(Cc1ccc(Cl)cc1)NNC(=S)NC(=O)c1cccs1 | inactive: -18.5%
19 | COc1ccc(OC)c(-c2cc(C(=O)Nc3c(C)nn(Cc4ccccc4C)c3C)no2)c1 | inactive: -23%
20 | Cn1c(SCc2ccc([N+](=O)[O-])cc2)nnc1-c1ccncc1 | inconclusive: -40.8%
21 | CC1=CC(C)(C)Nc2ccc(OC(=O)c3cccnc3)cc21 | active: -91.7%
22 | COc1ccc2c(c1)C=C(C(=O)OCc1cccnc1)CO2 | inconclusive: -47.5%

Row | Structure (SMILES) | activity change, negative = inhibition
23 | COc1ccc([C@H]2CC(=O)C=C(c3cccc(Cl)c3O)C2)cc1OC | inactive: -1.85%
24 | O=c1c(Cl)c(N2CCN(c3ccccc3)CC2)cnn1C12CC3CC(CC(C3)C1)C2 | inconclusive: -42.2%
25 | CCOc1ccccc1NC(=O)c1ccc(OCC(=O)N2CCOCC2)c(OC)c1 | inconclusive: -50.7%
26 | CO/N=C/C(C#N)c1ncc(C(F)(F)F)cc1Cl (stereo not given) | inactive: -28.7%
27 | CC1(C(=O)NS(=O)(=O)c2ccccc2)CCN1C(=O)C/C=C/c1ccccc1 (stereo not given) | inactive: 19.5%
28 | O=C(NCc1ccc2c(c1)OCO2)c1ccc2c(c1)N(Cc1ccccc1F)C(=O)c1ccccc1S2=O (stereo not given) | inactive: 23.2%
29 | CCc1nnc2sc(-c3ccc(NC(=O)c4ccc5c(c4)OCCO5)cc3)nn12 | inconclusive: -41.2%
30 | CC1CCCCN1C(=S)Nc1ccc(OC(F)F)cc1 (stereo not given) | inconclusive: -40.8%
31 | COc1ccc(CCNC(=O)c2cc(=O)c3cc(C)ccc3o2)cc1OC | inconclusive: -47.8%
32 | Cc1c(Cl)cccc1NC(=O)CCCn1nc([N+](=O)[O-])cc1C | inconclusive: -60%
33 | Cc1ccc2c(CN3CCN(S(=O)(=O)c4ccc5c(c4)OCCO5)CC3)cc(=O)oc2c1C | active: -77.9%
34 | O=[N+]([O-])c1ccc2[nH]c3c(c2c1)CCCC3 | inconclusive: -44.9%
35 | O=C(NCCC(=O)N1CCN(C(=O)c2ccco2)CC1)c1ccccc1Cl | inactive: -17.3%
36 | CC(=O)c1cccc(NC(=O)c2cccc3c(-c4cccc(C(N)=O)c4)coc23)c1 | inconclusive: -46.4%
37 | COc1ccccc1NC(=O)c1c(Nc2ccccc2C)sc(C(=O)Nc2cccc(Cl)c2)c1N | active: -97.5%
38 | Cc1ccc(NS(=O)(=O)c2cccc(C(=O)NC3CCN(Cc4ccccc4)CC3)c2)cc1 | inconclusive: -51%
39 | CC(C)(C)C(=O)Nc1nc(C2CCCN2S(=O)(=O)c2ccc(Cl)cc2)cs1 (stereo not given) | inconclusive: -41.1%
40 | COc1cccc(C(c2sc3nc(C)nn3c2O)N2CCC3(CC2)OCCO3)c1 (stereo not given) | inconclusive: -47.4%
41 | Cc1ccc(Nc2nc(N)nc(CN3CCN(Cc4ccc5c(c4)OCO5)CC3)n2)cc1C | inconclusive: -51.2%
42 | Nc1nnc(N2CCCCC2)s1 | inactive: 8.51%
43 | CC(=O)c1ccc(S(=O)(=O)Nc2ccc(C(=O)N3CCC3)cc2)cc1 | inactive: -13.5%
44 | CCOCCOc1cccc(C(=O)NC(C)c2ccc3ccccc3c2)c1 (stereo not given) | inactive: -8.16%

Three entries already listed, arranged by molecular weight, high to low.
Row | Structure (SMILES) | activity change, negative = inhibition
40 | COc1cccc(C(c2sc3nc(C)nn3c2O)N2CCC3(CC2)OCCO3)c1 (stereo not given) | inconclusive: -47.4%
35 | O=C(NCCC(=O)N1CCN(C(=O)c2ccco2)CC1)c1ccccc1Cl | inactive: -17.3%
23 | COc1ccc([C@H]2CC(=O)C=C(c3cccc(Cl)c3O)C2)cc1OC | inactive: -1.85%

Continued.

Row | Structure (SMILES) | activity change, negative = inhibition
45 | CCOC(=O)c1c(NC(=S)N2CCN(C)CC2)sc2c1CCN(C(=O)OCC)C2 | active: -98.8%
46 | Cc1ccc(C(=O)CSc2nc3c([nH]2)c(=O)n(C)c(=O)n3C)cc1 | inconclusive: -47.1%
47 | COc1ccc(-c2nnc(SCC(=O)Nc3ccccc3)n2C)cc1 | inconclusive: -45.2%
48 | COc1cc(OC)cc(-c2cc3nc(C)c(CCC(=O)Nc4ccccc4OC)c(C)n3n2)c1 | active: -61.6%
49 | C/C(=N/OC(=O)c1c(F)cccc1F)c1nccs1 | inconclusive: -41.6%
50 | Cc1ccc(S[C@@H](CCN2CC[C@H](NC(=O)OCc3ccccc3)CCC2=O)c2ccccc2)cc1 | inconclusive: -57.4%
51 | CCc1ccccc1NC(=O)CSc1nnc(-c2ccccc2)c(-c2ccccc2)n1 | active: -84.3%
52 | Cc1c(C(=O)NCCSCc2c(F)cccc2Cl)cnn1-c1ccc(F)cc1 | inconclusive: -43.7%
53 | CCOC(=O)CCc1c(C)c2ccc3c(c2oc1=O)CN(CCCO)CO3 | inconclusive: -55.9%
54 | Cc1[nH]cnc1C(=O)N/N=C/c1ccc([N+](=O)[O-])s1 | active: -90.4%
55 | O=C(NNC(=S)Nc1ccc(Cl)c(Cl)c1)c1ccccn1 | active: -82.3%
56 | O=C(c1ccc(F)cc1)N1CCN(S(=O)(=O)c2ccc(Br)cc2)CC1 | inconclusive: -40.5%
57 | CCCn1c(NC(=O)c2ccco2)nc2ccccc21 | inconclusive: -40.7%
58 | CCOC(=O)N/N=C1\CC(C)CC(C)(C)C1 (stereo not given) | inactive: -4.34%
59 | Cc1cc(=O)[nH]c(N2CCOCC2)n1 | inactive: -20.4%
60 | CC1(C)CC(=O)/C(=C(\O)Cc2ccccc2)C(=NCCCCCC(=O)O)C1 | inconclusive: -45%
61 | Cc1c(C)n(CC(O)CNc2ccccc2)c2ccccc12 (stereo not given) | inconclusive: -50.9%
62 | COc1ccc(CNC(=O)Nc2ccc(C)cc2C)cc1 | inconclusive: -41.1%
63 | O=C(C1=C(O)C(=O)N(CCN2CCOCC2)C1c1ccc(F)cc1)c1cc2ccccc2o1 (stereo not given) | inconclusive: -50.9%
64 | O=[N+]([O-])c1ccc(NN=Cc2cccc3ccccc23)nc1 | inconclusive: -44.8%
65 | COc1ccc(OC)c(-n2c(O)c(C=Nc3c(C)n(C)n(-c4ccccc4)c3=O)c(=O)[nH]c2=O)c1 | inconclusive: -42.2%
66 | CN(c1ccccc1)S(=O)(=O)c1cccc(NC(=O)C2CCCO2)c1 (stereo not given) | active: -62.3%

Fetched by structure from above, 2 records:
Row | Structure (SMILES) | activity change, negative = inhibition
45 | CCOC(=O)c1c(NC(=S)N2CCN(C)CC2)sc2c1CCN(C(=O)OCC)C2 | active: -98.8%
65 | COc1ccc(OC)c(-n2c(O)c(C=Nc3c(C)n(C)n(-c4ccccc4)c3=O)c(=O)[nH]c2=O)c1 | inconclusive: -42.2%

(next part)

Row | Structure (SMILES) | activity change, negative = inhibition
67 | COc1ccc(CNC(=O)C/C(C)=N/NC(=O)c2ccc([N+](=O)[O-])cc2Cl)cc1 | inconclusive: -40.7%
68 | Cc1ccc(C)c(N2CCN(S(=O)(=O)c3c(C)[nH]c(C)c3C(=O)N3CCCCC3)CC2)c1 | inconclusive: -48.9%
69 | CC(=O)c1ccc(NC(=S)NCc2ccc(Cl)cc2Cl)cc1 | inconclusive: -51%
70 | CN(C)C(=O)N1CCc2ccc([N+](=O)[O-])cc21 | inconclusive: -43.8%
71 | Cc1cccc(N(C)C(=O)Cc2c(C(=O)O)[nH]c3ccccc23)c1 | inactive: 16.3%
72 | COc1ccc(N2CCN(C(=O)C3CCN(S(=O)(=O)c4cn(C)cn4)CC3)CC2)cc1 | active: -72.4%
73 | Cc1ccc(NC(=O)C(=O)NCc2ccc(/C=C(/C#N)C(=O)NCc3cccnc3)o2)cc1C | inconclusive: -51.7%
74 | COC(=O)c1c(C)oc2ccc(N(C(=O)c3ccncc3)S(=O)(=O)c3cc(C)ccc3C)cc12 | active: -64.8%
75 | COc1ccccc1CN(C)C(=O)c1cccc(S(=O)(=O)N2CCc3ccccc3C2)c1 | inconclusive: -40.4%
76 | COc1ccccc1NC(=O)C(=O)NCc1ccccc1Cl | inconclusive: -58.9%
77 | CCN1CCN(c2cc(N3CCCC3)c(F)cc2[N+](=O)[O-])CC1 | inconclusive: -49.2%
78 | CS(=O)(=O)N1CCC(C(=O)Nc2ccc(Oc3ccccc3)cc2)CC1 | inactive: -29.1%
79 | C[C@@H]1CN([C@@H](C)CO)C(=O)c2cc(Br)cnc2O[C@@H]1CN(C)Cc1ccccn1 | inactive: 8.49%
80 | CC(=O)/C=C/c1ccc2ccccc2n1 | active: -83.7%
81 | CC1(C(=O)NS(=O)(=O)c2ccc(Cl)cc2)CCN1C(=O)COc1ccc(Cl)cc1 (stereo not given) | inactive: -38.7%
82 | CC(C)CCOc1ccc(-c2c(=O)n(OCc3ccc([N+](=O)[O-])cc3)c3ccccc3[n+]2[O-])cc1 | active: -69%
83 | CCOc1ccc(-c2cc(CCCC(=O)NCCc3cc(OC)c(OC)c(OC)c3)no2)cc1 | inconclusive: -44%
84 | COc1ccccc1-n1ccnc(SCC(=O)NC2CCCC2)c1=O | inconclusive: -55.3%
85 | Cc1ccc(C(=O)NC2(C(F)(F)F)N=C(c3ccccc3)N(Cc3ccccc3)C2=O)cc1 (stereo not given) | inconclusive: -51.2%
